The assay in a line: qHTS Assay for Lipid Storage Modulators in Drosophila S3 Cells.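 On cell number change: cells counted by Cell Tracker Red CMTPX staining in the red channel.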 Particulars: BODIPY lipid droplet fluorescence, 18-24 h; for cell number change: measured here: cell count max response, cells fed with added oleic acid. A digest of the protocol:
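Drosophila S3 cells loaded with oleic acid (400 uM, as added) and compounds at several concentrations; lipid droplets imaged by 488-nm laser-scanning cytometry, 500–530 nm intensity and object ratio to cell channel. Percent activity normalized to 20 uM Triacsin C.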

Setting [1] is: measured here: lipid fluorescence (Fed channel) AC50, cells fed with added oleic acid.
[2] abbreviates: measured here: cell number channel AC50, cells fed with added oleic acid.

Some of the results follow. The main result of the screen is listed elsewhere. These columns were measured beside it and carry no call. Most of these compounds were active or inconclusive in the main read-out, so they are no random draw. Words in brackets tell the shape of the fitted curve; partial curves, single points and poor fits give uncertain potencies.

One may read the AC50 as the concentration at which the activity in the assay is half-maximal. A low value points to greater potency.

As for `COc1ccc(CCN(Cc2nc3ccccc3c(=O)[nH]2)C(=O)c2ccco2)cc1OC`, the cell number change was 5.35%. Under setting [1], the AC50 was 0.731 µM [rising, full curve, poor fit].

As for `CC(NC(=O)Cc1ccccc1)c1cc2c(cc1Br)OCCCO2` (centres undefined), the cell number change came to 0.677%. The half-maximal activity concentration (AC50) under setting [2] was 6.51 µM [rising, single point].

Turning to `CC(=O)NC(CCS(C)(=O)=O)C(=O)N1CCc2ccccc21` (centres undefined), the AC50 under setting [2] was 6.51 µM [falling, single point] and the AC50 under setting [1] was 6.51 µM [falling, single point].

As to `CCc1ccccc1NC(=S)N(CCN(C)C)C(C)c1ccco1` (centres undefined), the cell number change was 5.91%. Besides, under setting [2], the AC50 was 6.51 µM [falling, single point].

`COc1ccc(-c2nc3ccc(C)cn3c2NCc2ccc3c(c2)OCO3)cc1`: the cell number change is -15.2%. The half-maximal activity concentration (AC50) under setting [1] is 18.4 µM [falling, single point].

Regarding `CC(C)CO/C(=N/S(=O)(=O)c1ccccc1)c1ccccc1`, the cell number change is -122%. Moreover, the concentration at half-maximal activity (AC50) under setting [2] was 29.1 µM [falling, partial curve].

For the compound `CCn1c(SCc2nc3cc(OC)c(OC)cc3c(=O)[nH]2)nnc1-c1ccncc1`, the cell number change was 5.11%. For the same compound, the half-maximal activity concentration (AC50) under setting [1] was 0.00517 µM [rising, full curve, poor fit].

As to `CCc1nc2ccccc2c(C(=O)O)c1C`, the cell number change is -36.3%. Further, the AC50 under setting [2] is 1.16 µM [falling, full curve]. For the same compound, the AC50 under setting [1] is 7.31 µM [falling, partial curve].

`COc1ccc(NS(=O)(=O)c2cccc(C(=O)NCC(c3ccc(F)cc3)N3CCOCC3)c2)cc1` (centres undefined): the cell number change is -38.4%. Under setting [2], the AC50 is 9.2 µM [falling, partial curve, poor fit]. Besides, under setting [1], the half-maximal activity concentration (AC50) is 0.82 µM [falling, single point].

For `COc1ccc(OC)c(-c2cc(C(F)(F)F)c3c(n2)sc2c(O)cc(=O)[nH]c23)c1`, the cell number change is -0.617%. Also, the AC50 under setting [1] was 23.1 µM [rising, single point].

In the case of `CN(C)c1ccc(/C=N/NC(=O)CCc2nc3ccccc3[nH]2)cc1`, the cell number change is -43.8%. Further, the AC50 under setting [2] was 23.1 µM [falling, single point].

With `Nc1ccc(C#Cc2ccc3c(=O)c4ccccc4oc3c2)cc1`, the cell number change is -0.971%.

With `CCn1c(=S)[nH]c2scc(-c3cccs3)c2c1=O`, the cell number change was -9.28%. Also, under setting [1], the half-maximal activity concentration (AC50) is 29.1 µM [rising, single point].

With `CCCCN(CC)CCCNC(=O)c1cn(C)c2ccc(S(=O)(=O)N(C)C3CCCCC3)cc2c1=O`, the cell number change is -6.87%. Also, the AC50 under setting [1] was 6.51 µM [rising, single point].

Turning to `Cc1ccc2cc(C)c(SCC(=O)Nc3ccc(S(=O)(=O)N4CCCC4)cc3)nc2c1`, the cell number change was -24.7%. In addition, the half-maximal activity concentration (AC50) under setting [1] is 13 µM [falling, partial curve, poor fit].

`Cc1cccc(C)c1NC(=O)CNC(=O)c1ccc(S(=O)(=O)NCc2ccco2)cc1`: the cell number change came to 8.03%.

For `COc1cccc(-c2cc(C(F)(F)F)n3nc(C(=O)Nc4c(C)n(C)n(-c5ccccc5)c4=O)cc3n2)c1`, the cell number change was found to be 91.1%. The AC50 under setting [1] is 29.1 µM [rising, single point].

With `Cc1ccc(C2=NCCn3nc4cc(C(F)(F)F)ccc4c32)cc1`, the cell number change is -49.2%. Further, under setting [2], the AC50 is 16.4 µM [falling, single point].

With `COC(=O)c1ccc(NC(=O)Cc2ccccc2)cc1`, the cell number change was -3.3%. Under setting [1], the AC50 was 25.9 µM [rising, partial curve].

`C=CCNc1oc(/C=C/c2ccccc2)nc1C#N`: the cell number change is -80.8%. For the same compound, the concentration at half-maximal activity (AC50) under setting [2] is 20.6 µM [falling, partial curve].

With `O=C1C=C(c2ccc(Cl)c(C(F)(F)F)c2)C[C@@H](c2ccc(Cl)cc2)C1`, the cell number change was -27.7%. Further, the AC50 under setting [1] is 7.31 µM [falling, partial curve, poor fit].

As to `CCOc1ccc(/C=C/C(=O)NC2CCCCC2)cc1`, the cell number change is 8.03%. Moreover, the AC50 under setting [1] is 29.1 µM [rising, single point].

On to `CC(=O)Oc1ccc2oc(C)c(C(=O)N3CCOCC3)c2c1`, for which the cell number change amounted to 10.4%. In addition, the half-maximal activity concentration (AC50) under setting [1] was 0.116 µM [falling, full curve, poor fit].

Turning to `COc1ccc(S(=O)(=O)N2CCCCCC2)cc1NC(=O)CN1C(=O)NC(C)(c2ccc(C)cc2)C1=O` (centres undefined), the cell number change was -35.7%. In addition, the AC50 under setting [2] is 25.9 µM [falling, single point]. Under setting [1], the half-maximal activity concentration (AC50) was 8.2 µM [falling, partial curve].

Regarding `O=C(CC(=O)Nc1ccccc1C(F)(F)F)Nc1ccccc1C(F)(F)F`, the cell number change was 27.9%.

As for `O=S(=O)(/C=C/c1ccccc1)Oc1ccccc1`, the cell number change amounted to 8.32%. For the same compound, the half-maximal activity concentration (AC50) under setting [1] is 6.51 µM [falling, single point].

In the case of `CCc1nnc(NC(=O)CCC(=O)NCCc2ccccc2)s1`, the cell number change was found to be 24.5%. The AC50 under setting [1] was 16.4 µM [rising, partial curve].

On to `Cc1ccccc1NC(=O)CSc1nnc(-c2ccoc2C)n1CCc1ccccc1`, for which the cell number change was -7.03%.

For the compound `O=C(Cn1ncc2c3ccccc3n(Cc3ccccc3F)c2c1=O)NCCN1CCOCC1`, the cell number change worked out at 12.9%.

On to `O=S(=O)(Nc1ccc2c(c1)OCCO2)c1cccs1`, for which the cell number change is -82.2%. Besides, under setting [2], the half-maximal activity concentration (AC50) was 32.6 µM [falling, partial curve, poor fit].

In the case of `CCOc1ccc(NC(=O)NC(=O)N(C(C)C)S(C)(=O)=O)cc1`, the cell number change was found to be 0.528%. In addition, the half-maximal activity concentration (AC50) under setting [2] was 6.51 µM [rising, single point].

`Cc1ccccc1N(Cc1cc(=O)[nH]c2ccccc12)C(=O)C(C)C`: the cell number change is 7.91%. For the same compound, under setting [1], the half-maximal activity concentration (AC50) is 0.461 µM [falling, full curve, poor fit].

Turning to `CCOC(=O)C1CCN(C(=O)COc2ccc3c(c2)OCO3)CC1`, the cell number change turned out to be 10.4%. In addition, the AC50 under setting [1] was 16.4 µM [rising, partial curve, poor fit].

Turning to `O=C(CN(Cc1ccccc1)C(=O)CNS(=O)(=O)c1ccc(F)cc1)NCc1ccco1`, the cell number change was -2.56%. Under setting [1], the concentration at half-maximal activity (AC50) is 0.116 µM [rising, single point].

As for `CC(=O)c1ccc(S(=O)(=O)N2CCN(CCOc3ccc(Br)cc3)CC2)cc1`, the cell number change is -15.1%. Also, the half-maximal activity concentration (AC50) under setting [2] is 2.31 µM [falling, single point].

As to `O=[N+]([O-])c1cccc(CN2CCN(c3cccc4[nH]ccc34)CC2)c1`, the cell number change came to 18.1%. Further, the AC50 under setting [1] was 9.2 µM [rising, partial curve].

For `O=C(Nc1ccc2oc(-c3ccncc3)nc2c1)c1ccc2c(c1)OCO2`, the cell number change amounted to 33.9%. In addition, the half-maximal activity concentration (AC50) under setting [2] was 16.4 µM [rising, single point].

`CCCCNC(=O)Nc1nnc(-c2ccccc2)o1`: the cell number change is 74.6%. Moreover, the half-maximal activity concentration (AC50) under setting [2] was 11.6 µM [rising, partial curve].

As to `Cc1oc(-c2cccc(Cl)c2)nc1CS(=O)(=O)CC(=O)NCCN1CCCC1`, the cell number change was -8.93%.

Turning to `Cc1ccc(SCC(=O)NCC2COc3ccccc3O2)cc1` (centres undefined), the cell number change was -2.48%. Also, under setting [1], the concentration at half-maximal activity (AC50) is 6.51 µM [falling, single point].

Consider `Cc1csc(NC(=O)CCC(=O)N(CC(=O)NC2CCCC2)Cc2ccccc2)n1`, for which the cell number change is -8.12%. Moreover, under setting [1], the AC50 is 29.1 µM [rising, single point].

With `O=S(=O)(c1ccc(Cl)cc1)N1CCNCC1`, the cell number change stood at 1.08%.

As for `CCOC(=O)c1cnn(CCOC(=O)C2CC2)c1NC(=O)C1CC1`, the cell number change stood at 2.65%.

Take `Cc1cc2nc(-c3ccccn3)c(-c3ccccn3)nc2cc1C`: the cell number change was determined as 3.18%.

As for `Cc1ccc(-c2nnn(CC(=O)NC3CC4CCC3C4)n2)cc1` (centres undefined), the half-maximal activity concentration (AC50) under setting [1] is 4.61 µM [rising, partial curve].

Consider `COc1ccccc1N=c1sc2ccccc2n1C`, for which the cell number change was found to be 27.2%. Besides, the AC50 under setting [1] was 6.51 µM [falling, partial curve, poor fit].

With `COc1cccc(CNc2nc3nc(C)c(Cl)c(C)n3n2)c1`, the half-maximal activity concentration (AC50) under setting [1] is 6.51 µM [rising, single point].

`CC(C)CCNC(=O)Cc1ccc(Nc2nc(=S)[nH]c3ccccc23)cc1`: the AC50 under setting [2] is 0.146 µM [falling, single point].

As for `CCCCCC1CC(COc2ccccc2)OC1=O` (centres undefined), the cell number change worked out at 15.5%. The AC50 under setting [1] was 0.13 µM [rising, full curve, poor fit].

With `COc1ccc(/C(O)=C2\C(=O)C(=O)N(Cc3ccco3)C2c2cc(OC)ccc2OC)cc1` (centres undefined), the half-maximal activity concentration (AC50) under setting [1] is 0.146 µM [rising, full curve, poor fit].

As for `COc1cc(C)nc(N2CCC(C(=O)NCC3CCCO3)CC2)n1` (centres undefined), the cell number change came to 11.6%.

Take `CC(C)(C)C(=O)COC(=O)CNC(=O)c1ccc(Oc2ccccc2)cc1`: the cell number change was -14.3%.

`Cc1cc(C)cc(OCC(=O)OCC(=O)c2c(N)n(C)c(=O)n(C)c2=O)c1`: the cell number change is -14%. Besides, the concentration at half-maximal activity (AC50) under setting [1] was 25.9 µM [falling, partial curve].

On to `O=C(O)CN1C(=O)/C(=C\c2cc(Br)ccc2OCc2ccccc2F)SC1=S`, for which the cell number change was 8.62%.

`O=C(c1ccc(S(=O)(=O)N2CCCCCC2)cc1)N1CCN(c2ccccc2)CC1`: the cell number change worked out at 4.96%. Further, the AC50 under setting [1] is 8.2 µM [rising, partial curve].

With `Cc1ccc2cc(CCNC(=O)c3ccc(S(=O)(=O)N4CCOCC4)cc3)c(=O)[nH]c2c1`, the cell number change is -11.1%.

In the case of `Cc1ccc(C(=O)N(CCN(C)C)CC2CCCN(Cc3ccccc3F)C2)cc1C` (centres undefined), the cell number change came to 5.47%. In addition, under setting [1], the half-maximal activity concentration (AC50) was 6.51 µM [falling, single point].

For `Cn1c(=O)c(=O)n(C)c2cc(N3CCCC3)c(NS(=O)(=O)c3ccc(Cl)cc3)cc21`, the cell number change was -23.9%. Further, the AC50 under setting [1] was 13 µM [falling, partial curve].

For `CCC(c1ccccc1)c1nnc(NC(=O)c2ccco2)s1` (centres undefined), the cell number change was found to be 37.8%. The AC50 under setting [2] was 18.4 µM [rising, single point]. In addition, the AC50 under setting [1] was 18.4 µM [rising, single point].

Turning to `CCCn1c(=O)[nH]c(=O)c2c1nc(-c1ccc(C#N)cc1)n2CCOC`, the cell number change was 19.8%. Besides, the AC50 under setting [1] was 0.58 µM [rising, single point].

With `CC(=O)c1cccc(NC(=S)NC(=O)c2ccc(Cl)cc2)c1`, the AC50 reads like this: under setting [2], 3.26 µM [rising, single point]; under setting [1], 6.51 µM [rising, single point].

Turning to `Cc1cccc(-c2nc(Nc3cccc(O)c3)c3ccccc3n2)c1`, the cell number change is -46.2%. Also, the AC50 under setting [2] is 13 µM [falling, partial curve]. The concentration at half-maximal activity (AC50) under setting [1] was 18.4 µM [falling, single point].

With `O=C(Nc1ccc(Oc2cccc(C(F)(F)F)c2)nc1)c1cccs1`, the cell number change is -15.3%. In addition, the concentration at half-maximal activity (AC50) under setting [1] was 5.17 µM [falling, full curve].

The values above are taken from PubChem BioAssay AID2685 (National Center for Advancing Translational Sciences (NCATS), 2010).
